Numbers after ± are expanded uncertainties.
Conditions: 288.15 K; 101 kPa; Liquid; Pycnometric method

mass density: 999 ± 1 kg/m3
SMILES: O [water]

Source: the NIST ThermoML archive (doi:10.1016/j.fluid.2012.05.007)
